Measurements as given in the supplement of paper PMC10849652.
Some of the results follow.

Chains of the proteins cited; added tags and fusions are not shown. Lines headed by an entry give the natural chain unless they say otherwise; changes in a name come on top.
UniProt O60266: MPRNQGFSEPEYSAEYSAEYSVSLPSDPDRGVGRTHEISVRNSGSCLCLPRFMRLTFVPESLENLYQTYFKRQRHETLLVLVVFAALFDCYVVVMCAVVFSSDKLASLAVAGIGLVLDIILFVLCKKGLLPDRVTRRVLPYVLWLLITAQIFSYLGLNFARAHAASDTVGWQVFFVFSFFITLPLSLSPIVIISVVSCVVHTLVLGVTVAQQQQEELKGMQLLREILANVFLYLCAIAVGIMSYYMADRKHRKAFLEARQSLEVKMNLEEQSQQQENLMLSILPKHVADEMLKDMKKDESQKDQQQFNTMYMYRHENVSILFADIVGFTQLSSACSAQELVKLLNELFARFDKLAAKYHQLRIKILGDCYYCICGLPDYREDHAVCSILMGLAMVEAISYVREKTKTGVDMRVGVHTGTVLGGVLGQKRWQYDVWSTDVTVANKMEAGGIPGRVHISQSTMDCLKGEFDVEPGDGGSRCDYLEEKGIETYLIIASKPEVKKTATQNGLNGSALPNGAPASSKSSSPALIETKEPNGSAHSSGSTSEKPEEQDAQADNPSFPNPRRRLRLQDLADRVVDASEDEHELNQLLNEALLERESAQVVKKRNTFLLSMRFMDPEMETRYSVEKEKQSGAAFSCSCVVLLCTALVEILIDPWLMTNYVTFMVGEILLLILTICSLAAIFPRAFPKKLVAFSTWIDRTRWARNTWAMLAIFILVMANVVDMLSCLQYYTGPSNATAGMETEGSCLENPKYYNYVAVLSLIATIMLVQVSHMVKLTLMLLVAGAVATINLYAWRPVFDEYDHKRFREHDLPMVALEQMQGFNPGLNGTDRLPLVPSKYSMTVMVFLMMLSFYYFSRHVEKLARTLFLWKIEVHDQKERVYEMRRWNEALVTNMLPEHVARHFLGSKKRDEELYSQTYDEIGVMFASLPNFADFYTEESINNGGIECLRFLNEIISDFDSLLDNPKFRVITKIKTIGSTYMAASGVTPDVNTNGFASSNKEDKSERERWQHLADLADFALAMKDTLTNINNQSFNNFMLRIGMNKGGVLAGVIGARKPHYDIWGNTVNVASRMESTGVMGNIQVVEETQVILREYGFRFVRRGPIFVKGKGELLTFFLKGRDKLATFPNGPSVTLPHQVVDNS
UniProt Q8WYP5: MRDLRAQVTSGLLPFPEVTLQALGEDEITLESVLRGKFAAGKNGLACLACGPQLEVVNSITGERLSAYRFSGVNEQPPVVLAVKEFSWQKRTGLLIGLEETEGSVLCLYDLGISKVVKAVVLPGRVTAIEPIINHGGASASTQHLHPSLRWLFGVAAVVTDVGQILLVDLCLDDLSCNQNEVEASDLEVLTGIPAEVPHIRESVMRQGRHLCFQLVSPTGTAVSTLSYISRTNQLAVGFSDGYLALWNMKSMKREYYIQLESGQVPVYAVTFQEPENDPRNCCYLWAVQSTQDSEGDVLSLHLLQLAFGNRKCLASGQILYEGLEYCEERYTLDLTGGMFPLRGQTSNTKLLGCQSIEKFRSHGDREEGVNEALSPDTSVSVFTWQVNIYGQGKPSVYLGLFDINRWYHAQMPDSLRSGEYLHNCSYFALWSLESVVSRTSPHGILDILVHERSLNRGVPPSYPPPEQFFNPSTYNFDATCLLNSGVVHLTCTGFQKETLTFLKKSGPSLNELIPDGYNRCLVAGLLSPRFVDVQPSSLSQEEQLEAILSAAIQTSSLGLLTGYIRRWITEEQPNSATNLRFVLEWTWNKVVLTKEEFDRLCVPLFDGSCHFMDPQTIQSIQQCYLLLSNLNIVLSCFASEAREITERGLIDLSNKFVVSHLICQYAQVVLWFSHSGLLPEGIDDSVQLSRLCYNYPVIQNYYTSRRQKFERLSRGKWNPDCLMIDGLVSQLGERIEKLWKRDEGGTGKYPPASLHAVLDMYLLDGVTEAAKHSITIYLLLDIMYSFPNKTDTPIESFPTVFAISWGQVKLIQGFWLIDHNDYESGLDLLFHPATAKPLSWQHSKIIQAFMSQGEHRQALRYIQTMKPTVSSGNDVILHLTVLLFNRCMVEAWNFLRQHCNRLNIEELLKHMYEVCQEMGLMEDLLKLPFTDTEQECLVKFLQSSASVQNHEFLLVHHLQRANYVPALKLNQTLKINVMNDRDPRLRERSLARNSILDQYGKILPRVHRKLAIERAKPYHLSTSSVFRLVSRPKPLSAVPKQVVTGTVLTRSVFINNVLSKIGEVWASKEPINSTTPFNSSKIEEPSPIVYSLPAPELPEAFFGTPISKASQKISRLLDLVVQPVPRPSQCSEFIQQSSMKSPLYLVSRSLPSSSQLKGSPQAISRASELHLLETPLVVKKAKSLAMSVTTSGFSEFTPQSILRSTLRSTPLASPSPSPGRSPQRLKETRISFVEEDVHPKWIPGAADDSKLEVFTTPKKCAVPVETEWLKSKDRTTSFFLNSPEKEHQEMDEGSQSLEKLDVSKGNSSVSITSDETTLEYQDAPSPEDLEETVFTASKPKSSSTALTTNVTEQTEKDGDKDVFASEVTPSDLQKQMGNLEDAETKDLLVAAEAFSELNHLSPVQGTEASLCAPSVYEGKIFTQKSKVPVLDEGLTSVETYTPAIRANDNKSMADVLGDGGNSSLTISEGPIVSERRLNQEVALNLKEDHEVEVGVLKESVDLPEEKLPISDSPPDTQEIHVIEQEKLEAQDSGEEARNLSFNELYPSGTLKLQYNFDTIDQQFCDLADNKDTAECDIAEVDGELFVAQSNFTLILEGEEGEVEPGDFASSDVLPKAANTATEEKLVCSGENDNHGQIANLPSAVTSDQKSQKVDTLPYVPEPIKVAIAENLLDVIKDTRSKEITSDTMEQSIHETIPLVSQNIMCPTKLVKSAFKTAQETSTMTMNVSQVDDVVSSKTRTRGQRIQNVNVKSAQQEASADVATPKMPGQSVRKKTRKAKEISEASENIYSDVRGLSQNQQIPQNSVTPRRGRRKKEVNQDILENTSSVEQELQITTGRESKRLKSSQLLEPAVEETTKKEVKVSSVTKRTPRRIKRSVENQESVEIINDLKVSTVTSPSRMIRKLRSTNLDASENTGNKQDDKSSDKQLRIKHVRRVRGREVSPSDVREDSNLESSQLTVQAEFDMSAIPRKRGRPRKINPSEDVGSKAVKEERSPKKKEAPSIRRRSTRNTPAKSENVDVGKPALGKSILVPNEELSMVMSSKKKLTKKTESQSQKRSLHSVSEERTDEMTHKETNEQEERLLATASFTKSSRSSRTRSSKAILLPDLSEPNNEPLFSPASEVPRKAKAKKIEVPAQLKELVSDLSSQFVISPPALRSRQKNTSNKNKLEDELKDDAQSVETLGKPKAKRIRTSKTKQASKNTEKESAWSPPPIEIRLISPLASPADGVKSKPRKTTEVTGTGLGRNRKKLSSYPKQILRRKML
UniProt Q3LIE5: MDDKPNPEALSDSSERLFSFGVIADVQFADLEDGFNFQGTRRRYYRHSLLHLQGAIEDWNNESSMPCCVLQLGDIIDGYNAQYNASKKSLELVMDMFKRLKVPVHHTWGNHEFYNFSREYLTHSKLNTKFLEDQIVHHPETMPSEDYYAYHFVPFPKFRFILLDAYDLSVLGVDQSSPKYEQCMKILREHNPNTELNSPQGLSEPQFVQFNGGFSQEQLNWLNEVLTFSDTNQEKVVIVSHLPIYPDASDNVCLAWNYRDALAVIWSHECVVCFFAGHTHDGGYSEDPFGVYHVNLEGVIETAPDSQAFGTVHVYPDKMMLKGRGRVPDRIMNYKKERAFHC
UniProt P43652: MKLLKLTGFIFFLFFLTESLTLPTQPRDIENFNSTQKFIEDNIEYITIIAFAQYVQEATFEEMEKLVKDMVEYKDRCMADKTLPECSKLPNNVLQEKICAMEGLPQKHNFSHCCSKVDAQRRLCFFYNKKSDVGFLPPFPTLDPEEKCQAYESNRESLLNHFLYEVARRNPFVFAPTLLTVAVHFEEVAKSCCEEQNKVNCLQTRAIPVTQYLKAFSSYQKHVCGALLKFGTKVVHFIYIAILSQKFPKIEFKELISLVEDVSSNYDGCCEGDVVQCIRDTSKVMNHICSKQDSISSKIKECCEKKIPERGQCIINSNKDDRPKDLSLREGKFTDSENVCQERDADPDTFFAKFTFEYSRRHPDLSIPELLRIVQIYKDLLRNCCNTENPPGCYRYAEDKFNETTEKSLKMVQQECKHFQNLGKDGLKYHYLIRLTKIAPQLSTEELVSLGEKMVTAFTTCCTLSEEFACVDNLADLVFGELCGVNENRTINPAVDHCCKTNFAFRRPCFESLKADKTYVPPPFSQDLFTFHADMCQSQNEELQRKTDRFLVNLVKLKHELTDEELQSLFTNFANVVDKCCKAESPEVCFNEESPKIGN
UniProt Q63HM1: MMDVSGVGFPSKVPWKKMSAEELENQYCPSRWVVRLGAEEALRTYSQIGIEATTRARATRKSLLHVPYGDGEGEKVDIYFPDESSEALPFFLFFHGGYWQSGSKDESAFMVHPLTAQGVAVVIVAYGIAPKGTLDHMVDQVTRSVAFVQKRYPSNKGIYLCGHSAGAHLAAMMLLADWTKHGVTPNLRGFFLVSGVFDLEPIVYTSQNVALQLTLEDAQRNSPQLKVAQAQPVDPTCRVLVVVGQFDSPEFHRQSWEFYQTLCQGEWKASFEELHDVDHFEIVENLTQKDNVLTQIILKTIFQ
UniProt Q86TW2: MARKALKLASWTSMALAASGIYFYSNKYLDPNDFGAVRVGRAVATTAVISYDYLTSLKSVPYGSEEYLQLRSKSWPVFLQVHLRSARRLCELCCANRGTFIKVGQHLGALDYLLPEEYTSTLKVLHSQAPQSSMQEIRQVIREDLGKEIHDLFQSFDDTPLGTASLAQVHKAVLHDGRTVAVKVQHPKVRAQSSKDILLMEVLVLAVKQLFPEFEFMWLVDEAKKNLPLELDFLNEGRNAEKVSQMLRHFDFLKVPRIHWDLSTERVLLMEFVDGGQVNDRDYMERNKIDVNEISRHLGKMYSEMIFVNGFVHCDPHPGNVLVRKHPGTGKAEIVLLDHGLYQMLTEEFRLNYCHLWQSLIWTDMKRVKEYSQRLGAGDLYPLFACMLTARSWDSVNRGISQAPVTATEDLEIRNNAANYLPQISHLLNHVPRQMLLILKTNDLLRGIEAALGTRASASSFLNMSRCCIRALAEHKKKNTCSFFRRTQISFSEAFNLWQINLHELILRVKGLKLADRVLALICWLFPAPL
UniProt Q9NZD4: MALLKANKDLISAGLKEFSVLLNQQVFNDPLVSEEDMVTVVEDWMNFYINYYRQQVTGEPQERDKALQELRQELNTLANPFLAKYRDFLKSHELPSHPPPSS
UniProt Q96M93: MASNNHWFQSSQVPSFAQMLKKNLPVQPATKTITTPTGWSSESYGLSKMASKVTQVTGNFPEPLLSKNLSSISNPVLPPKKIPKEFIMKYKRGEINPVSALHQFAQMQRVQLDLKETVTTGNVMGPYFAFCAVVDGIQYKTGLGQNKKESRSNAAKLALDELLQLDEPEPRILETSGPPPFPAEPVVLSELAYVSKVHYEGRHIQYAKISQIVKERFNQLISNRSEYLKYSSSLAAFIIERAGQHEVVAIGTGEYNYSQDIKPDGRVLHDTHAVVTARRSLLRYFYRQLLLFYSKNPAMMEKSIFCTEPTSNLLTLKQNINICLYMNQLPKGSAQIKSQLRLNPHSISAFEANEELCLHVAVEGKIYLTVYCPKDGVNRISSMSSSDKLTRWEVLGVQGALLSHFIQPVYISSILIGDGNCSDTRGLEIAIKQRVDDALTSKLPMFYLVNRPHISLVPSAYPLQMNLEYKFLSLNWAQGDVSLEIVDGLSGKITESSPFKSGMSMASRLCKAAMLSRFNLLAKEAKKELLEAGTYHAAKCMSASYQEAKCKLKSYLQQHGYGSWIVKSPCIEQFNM
UniProt Q9NUB1: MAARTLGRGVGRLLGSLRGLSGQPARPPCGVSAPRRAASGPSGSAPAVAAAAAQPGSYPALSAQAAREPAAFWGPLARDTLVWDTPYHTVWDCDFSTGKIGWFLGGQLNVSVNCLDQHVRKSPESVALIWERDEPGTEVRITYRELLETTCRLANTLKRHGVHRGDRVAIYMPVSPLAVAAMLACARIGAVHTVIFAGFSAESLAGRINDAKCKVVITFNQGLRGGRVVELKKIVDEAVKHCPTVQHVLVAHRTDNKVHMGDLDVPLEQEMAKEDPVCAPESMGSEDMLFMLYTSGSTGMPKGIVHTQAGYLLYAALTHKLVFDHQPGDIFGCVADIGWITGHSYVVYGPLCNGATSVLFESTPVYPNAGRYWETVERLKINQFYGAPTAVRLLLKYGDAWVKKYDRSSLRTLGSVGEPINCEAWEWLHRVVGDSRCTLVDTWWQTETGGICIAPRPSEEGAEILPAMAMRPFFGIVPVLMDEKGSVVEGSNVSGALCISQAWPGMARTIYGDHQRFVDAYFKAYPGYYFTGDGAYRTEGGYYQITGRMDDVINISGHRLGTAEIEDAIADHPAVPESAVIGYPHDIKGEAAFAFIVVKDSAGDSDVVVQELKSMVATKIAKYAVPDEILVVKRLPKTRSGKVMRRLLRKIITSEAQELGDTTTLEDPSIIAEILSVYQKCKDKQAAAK

compound: C#Cc1cccc(Nc2ncnc3cc(OCCOC)c(OCCOC)cc23)c1 [erlotinib]; assay: log2 fold change, soluble protein after heating vs DMSO (PISA); higher = thermal stabilisation; K562 lysate, 10 uM; active = over 0.2 and 3.5 SD of the protein, either way, in both replicates (recomputed)
Method in brief: (§1)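 Following dounce homogenisation of K562 pellets in PBS pH 7.4 with 1 mM MgCl2, crude extract at 1 mg/mL protein was incubated for 30 min with 10 μM compound. Aliquots were then heated for 3 min over 48°C-58°C and pooled, NP-40 was added to 0.5% at 4°C, and soluble protein was recovered as the supernatant at 21,000xg for 90 min. Channel-sum-equalised TMTpro 16plex LC-MS/MS quantified this protein. Each value, from duplicates, is a log-two fold change in thermal stability relative to solvent controls.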

log2 fold change, inactive:
ADCY3 (UniProt O60266) 0.011
ACP5 (UniProt P13686) 0.077
AHCTF1 isoform 2 (UniProt Q8WYP5) 0.086
ADCY7 (UniProt P51828) -0.017

compound: C/C(=N\NC(=O)C1=CC(=CC=C1)S(=O)(=O)N2CCOCC2)/C3=C(C=CC(=C3)Cl)O; assay: as above
Method in brief: as §1

log2 fold change, inactive:
ADPRM (UniProt Q3LIE5) -0.101
AFM (UniProt P43652) 0.026
AFMID isoform 2 (UniProt Q63HM1) 0.056
ACTB, A0A2R8YEA7 -0.059
ADCK1 (UniProt Q86TW2) -0.243
ACTB, A0A2R8YGF8 0.791
ACTB (UniProt C9JTX5) 0.054
AHSP (UniProt Q9NZD4) -0.016
AFDN (UniProt A8MQ02) 0.251
ADAD1 (UniProt Q96M93) 0.629

compound: C1=CC(=CC=C1C2=NC3=C(N2)C=C(C=C3)C(=O)N)OC4=CC=C(C=C4)Cl; assay: as above
Method in brief: as §1

log2 fold change, inactive:
ADCY3 (UniProt O60266) 0.211
ACP5 (UniProt P13686) -0.552
AHCTF1 isoform 2 (UniProt Q8WYP5) -0.029
ADCY7 (UniProt P51828) 0.174

compound: C1=CC2=C(C=CC(=C2)/C=C\3/C(=O)NC(=NCC4=CC=CS4)S3)N=C1; assay: as above
Method in brief: as §1

log2 fold change, inactive:
ADPRM (UniProt Q3LIE5) -0.172
AFM (UniProt P43652) -0.05
AFMID isoform 2 (UniProt Q63HM1) 0.023
ACTB, A0A2R8YEA7 -0.157
ADCK1 (UniProt Q86TW2) 0.128
ACTB, A0A2R8YGF8 0.753
ACTB (UniProt C9JTX5) -0.064
AHSP (UniProt Q9NZD4) -0.001
AFDN (UniProt A8MQ02) -0.047
ADAD1 (UniProt Q96M93) -0.016

compound: C1=CC2=NC=CN=C2C=C1/C=C/3\C(=O)NC(=O)S3; assay: as above
Method in brief: as §1

log2 fold change, inactive:
ADPRM (UniProt Q3LIE5) 0.081
ADK, A0A5F9ZH76 0
ACSS3 (UniProt Q9H6R3) -0.046
ACSS1 (UniProt Q9NUB1) -0.034
ADAT1 (UniProt Q9BUB4) -0.05
AIMP2 isoform 2 (UniProt Q13155) 0.056
ACTB (UniProt C9JUM1) -0.474
ACTB, A0A2R8YGF8 -0.107
AHDC1 (UniProt Q5TGY3) 0.278
ACTB (UniProt C9JTX5) -0.24
ACTN4 (UniProt K7EJH8) -0.026
ACOX3 (UniProt O15254) -0.081
ACVR1 (UniProt Q04771) 0.074
AHSP (UniProt Q9NZD4) -0.036
AGTRAP isoform 2 (UniProt Q6RW13) -0.07

compound: C1=CC=C(C=C1)C2=NC(=C(N2)C3=CC=NC=C3)C4=CC(=C(C=C4)Cl)O; assay: as above
Method in brief: as §1

log2 fold change, inactive:
ADPRM (UniProt Q3LIE5) 0.116
ACSS1 (UniProt Q9NUB1) 0.166
AFMID isoform 2 (UniProt Q63HM1) -0.007
ADCY3 (UniProt O60266) 0.089
ACTN4 (UniProt H7C144) -0.185
AIMP2 isoform 2 (UniProt Q13155) 0.061
AHCTF1 isoform 2 (UniProt Q8WYP5) 0.058
AKR1B10 (UniProt O60218) -0.792
ACTN4 (UniProt K7EJH8) 0.012
ADAD1 (UniProt Q96M93) -0.058

compound: C1=CC=C2C(=C1)C3=NNC4=CC=CC(=C43)C2=O; assay: as above
Method in brief: as §1

log2 fold change, inactive:
ADPRM (UniProt Q3LIE5) -0.051
AFM (UniProt P43652) 0.049
AFMID isoform 2 (UniProt Q63HM1) -0.087
ACTB, A0A2R8YEA7 0.215
ADCK1 (UniProt Q86TW2) 0.066
ACTB, A0A2R8YGF8 -0.112
ACTB (UniProt C9JTX5) 0.116
AHSP (UniProt Q9NZD4) -0.108
AFDN (UniProt A8MQ02) 0.123
ADAD1 (UniProt Q96M93) 0.034

compound: C1CCN(C1)C(=O)NC2=CC=CC(=C2)NC3=NC=C(C(=N3)NCCC4=CN=CN4)Br; assay: as above
Method in brief: as §1

log2 fold change, inactive:
ADPRM (UniProt Q3LIE5) 0.034
AFM (UniProt P43652) 0.086
ACSS1 (UniProt Q9NUB1) -0.069
ACTG1 (UniProt K7EM38) -0.162
AFMID isoform 2 (UniProt Q63HM1) -0.056
ADCK1 (UniProt Q86TW2) -0.122
ACTN4 (UniProt K7EJH8) 0
ACOX3 (UniProt O15254) -0.253
ADCK5 (UniProt Q3MIX3) 0.112
AHSP (UniProt Q9NZD4) 0.049
ADAD1 (UniProt Q96M93) -0.097
